Experimental data from PubChem BioAssay AID1259415 (National Center for Advancing Translational Sciences (NCATS), 2018).
The campaign covered roughly 410,000 compounds. About 18,000 (4.4%) were called active. The inconclusive results got no clear call from the source; some entries with a clear call stand among them for comparison. No stated cut-off is given here; in the data, active means activity change below about -60%; inconclusive means no clear call, values can overlap the other calls; inactive means above about -39%.

Experiment: qHTS Assay for inhibitors of the human cytomegalovirus (HCMV)
Details: HFF cells, HCMV-luciferase reporter, 72 h; at 57.5 µM; active compounds read low
How it was run: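 Human foreskin fibroblasts infected with luciferase-reporter HCMV at MOI 1 PFU/cell, compounds at two doses. Luciferase measured 72 h post infection; normalized to buffer-only basal and Salinomycin (10uM) controls.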
On the % scale 0 is the no-effect control and ±100 the full control effect.

SMILES | activity change, negative = inhibition
CCOCCc1nn2c(=O)cc(CSCC(=O)Nc3cccc(C)c3C)nc2s1 | inconclusive: -41.1%
O=C(Nc1ccc(F)cc1F)Nc1ccc(F)cc1F | inconclusive: -49.6%
COc1cc2c(c(OC)c1OC)-c1ccc(SC)c(=O)cc1C(NC=O)CC2 (centres undefined) | active: -97.5%
CN(CC(=O)Nc1cccc(F)c1)C(=O)c1cccc(S(=O)(=O)N2CCN(Cc3ccccc3)CC2)c1 | inconclusive: -57.8%
CCc1cc(C(=O)Nc2ccccc2N2CCOCC2)sc1C | inconclusive: -53.3%
Cc1ccc(/C=C/C(=O)O)cc1S(=O)(=O)NCC1CCCO1 (centres undefined) | inconclusive: -41.5%
CCOC(=O)C1CCCN(C(=O)c2ccc3ccccc3c2)CC1 (centres undefined) | inactive: -24.9%
CCC(C)NC(=O)c1ccccc1-c1ccccc1C(=O)NC(C)CC (centres undefined) | inactive: 26.9%
CCOc1ccc(S(=O)(=O)c2c(C(=O)c3ccc(C)cc3)cnc3cc4c(cc23)OCCO4)cc1 | active: -62.1%
Cc1nnc(NC(=O)CCn2cnc3ccccc3c2=O)s1 | inactive: 32.9%
CCOC(=O)c1cnc2ccc(C)cc2c1Nc1ccc(N(CC)CC)cc1 | active: -106%
O=C1NC(=S)N/C1=C/c1ccc2c(c1)OCO2 | inconclusive: -49.4%
CC(CC(=O)Nc1ccc(F)c([N+](=O)[O-])c1)c1ccccc1 (centres undefined) | inconclusive: -55.3%
COc1ccc(N2CCN(CCCNC(=O)c3cc4sccc4n3C)CC2)cc1 | inactive: 7.32%
CN1CCc2cc(Cl)c(O)cc2[C@@H](c2ccccc2)C1 | active: -64.6%
CN(CC(=O)NCc1ccc(F)cc1)S(=O)(=O)c1ccc(Br)s1 | active: -71.4%
CCN1/C(=C/c2ccc3cc(C)ccc3[n+]2CC)Sc2ccccc21 | active: -102%
NS(=O)(=O)c1ccc(CCNC(=O)c2ccccc2[N+](=O)[O-])cc1 | inactive: -5.38%
Cc1ccc(C(=O)Nc2ccc(C(=O)N3CCCCC3C)cc2)cc1 (centres undefined) | inconclusive: -46.5%
COCC(=O)OCC(=O)Nc1cc(C)c(C)cc1[N+](=O)[O-] | inconclusive: -48.1%
COc1cccc(OCC(=O)Nc2ccc(OC)c(OC)c2)c1 | inactive: -23.1%
Cc1ccc(Nc2nc3ccccc3c(=O)s2)cc1 | inconclusive: -53.3%

SMILES | activity change, negative = inhibition
Cc1nn(C)cc1S(=O)(=O)NCc1ccccc1Cl | inactive: 5.85%
Cc1cc(C)c[n+](C2=C([O-])c3ccccc3C(=O)/C2=N\S(=O)(=O)c2cccs2)c1 | inactive: 0.0426%
CSc1c(SCc2ccccc2)cnn(Cc2ccccc2)c1=O | inconclusive: -43.4%
O=C(CS(=O)(=O)c1ccc(Cl)cc1)Nc1nnc(-c2cccs2)o1 | inactive: -6.67%
CCn1c(=N)n(CC(=O)C23CC4CC(CC(C4)C2)C3)c2ccccc21 | inconclusive: -58.6%
CC(C)CNC(=S)N1CCN(c2nc(-c3ccc(Cl)cc3)cs2)CC1 | inconclusive: -55.2%
COc1ccc([N+](=O)[O-])cc1NS(=O)(=O)c1cccc(C(=O)NCCCN2CCCC2=O)c1 | inconclusive: -43.8%
COc1ccc(CC2(CO)CCN(Cc3cnc(-c4ccccc4C)nc3)CC2)cc1 | inconclusive: -59.4%
C=CCn1c(C)cc(C2=NNC(=NC(C)(C)C)SC2)c1C | active: -85.2%
Cc1cc(=O)[nH]c(N/N=C/c2ccc(Cl)c([N+](=O)[O-])c2)n1 | inconclusive: -56%
C=CCOC(=O)C1=C(C)NC(SCC(=O)Nc2nccs2)=C(C#N)C1c1cccs1 (centres undefined) | inconclusive: -51.7%
O=C(NCCC1=CCCCC1)C(=O)c1c[nH]c2ccccc12 | inactive: -23.5%
Cc1cc(C)c(C#N)c(SCc2ccccc2[N+](=O)[O-])n1 | active: -96.9%
COc1ccccc1C(CNc1ccc(S(=O)(=O)N2CCCC2)cc1[N+](=O)[O-])N(C)C (centres undefined) | inconclusive: -44.2%
CCCCc1ccc(-n2nc3cc(Cl)c(NC(=O)c4ccc(OC)cc4)cc3n2)cc1 | inactive: 18.5%
CCN(CC)S(=O)(=O)c1cccc(NC(=O)c2ccc(SC)cc2OC)c1 | inconclusive: -58.5%
CCCCc1c(-c2ccc(F)cc2F)ncn1CCc1ccccc1OC | inconclusive: -60%
Cc1ccc(C(NC(=O)NCCCN2CCOCC2)=C(Cl)Cl)cc1F | inconclusive: -42.7%
O=C(NCc1ccccc1)c1cccc2c1C(=O)c1ccc(/C=C/c3ccccc3)cc1S2(=O)=O | inconclusive: -51.6%
Cn1c(SC/C=C/c2ccccc2)nnc1-c1ccco1 | inconclusive: -42.5%
O=C(OCc1ccccc1)N1CCC2CC1c1ccc(/C=C/CCCCl)cc12 (centres undefined) | inactive: 44%
O=C(c1ccc(C(F)(F)F)cc1)C1CCCN(Cc2cccn2-c2ncccn2)C1 (centres undefined) | inconclusive: -52.9%

Part of the list above, with each value named.
Cc1nn(C)cc1S(=O)(=O)NCc1ccccc1Cl
  activity change, negative = inhibition: inactive: 5.85%
Cc1cc(C)c[n+](C2=C([O-])c3ccccc3C(=O)/C2=N\S(=O)(=O)c2cccs2)c1
  activity change, negative = inhibition: inactive: 0.0426%
CSc1c(SCc2ccccc2)cnn(Cc2ccccc2)c1=O
  activity change, negative = inhibition: inconclusive: -43.4%
O=C(CS(=O)(=O)c1ccc(Cl)cc1)Nc1nnc(-c2cccs2)o1
  activity change, negative = inhibition: inactive: -6.67%
